Assay results reported in PubChem BioAssay AID1508600 (Functional Genomics Laboratory (NCATS/FGL), 2020).
The whole screen tested about 53,000 sequences, of which about 3,700 (7%) were called active.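 Rule for the calls: active = gene knockdowns whose robust z-score for IL-1 alpha signal is at least 2 or at most -2, so actives lie on both sides; inactive = the rest.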 The list shows a part of the results.

experiment: Components of the Cytosolic LPS Sensing Pathway: Gene Identification via Genome-wide siRNA Screen; conditions: RAW264.7 macrophages, IL-1a HTRF, actives lie on both sides, screened at 100 nM (by protocol), cells primed 5 h with Pam3CSK4 first;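 note: robust z of the log signal after scaling to non-targeting control siRNA wells of the plate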
Summary of the method: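 Knockdown: 100 nM siRNA, 48h, RAW264.7. Stimulation: Pam3CSK4 5 h, then LipidA via TransIT-TKO 24 h. Output: supernatant IL-1a HTRF, negative-control-normalized, log robust z-score; viability by CellTiter-Glo.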

z-score, inactive:
GGUAGACAAGCUGUUUGAUTT against Meak7 -0.429
GGAACCAAGCCAUGAUUUUTT against Mrgprb2 0.646
GCUCGUUUACUCUUACACCTT against Lefty2 0.966
GGGAGCUAAGAAGAUUCAUTT against Mul1 0.89
CCAUACAAGAGUGACAGUUTT against Olfr810 -0.736
CAGGCAUCGAAACAUUCAUTT against Olfr672 1.35
GGAAGGAAAAAGGCUUUUGTT against Olfr135 1.35
GGAUACUUAGUCUUGAAUCTT against Mterf3 -0.0324
GCUGGUGUGUAAUUACGUUTT against Gli1 0.378
GGCACCUGAGCGAUUUGAUTT against Trmt1 -1.26
GGGCUACAUAACCAUCCGUTT against Bcam 0.99
CCAGGCAGCUAAACUGUGUTT against Tex11 -0.11
GGAUUUAUCCCAAAAUCUATT against Tmem26 0.42
GCUAUGUUCACUAUCCCACTT against Alg11 -1.08
GGUGAAGACUGGAACAAGATT against Nalcn -0.0705
GGAAGAGAGAAUAAGUAUCTT against Robo2 -0.791
CCCUAACUUGGAUAAGCUGTT against Cyb5r1 -0.352
GGCUCCUGUAUCUUGAUGUTT against Zfp418 0.436
CCGGGAAAUUCUGUUAGCCTT against Pla2g1b -1.95
CCACAUUUAUGGCUAAAUUTT against Wapl 0.164
GCCAGCAACCCUCUUCGUUTT against Foxo6 0.142
GCCGUCUUCCGAAGAAUACTT against Mettl1 0.11
GAAGACUCGGAAGAAAAUGTT against Prr13 -0.542
GGUUCUCUUGUAAAGAUGUTT against Slco1a1 -0.238
GGUAAUGCUUGAAGAUAAUTT against Ivns1abp -1.75
CCAAAUGCUUAUCUCUACATT against Dock6 0.00388
GGUGCUUUGAAGUUUUUCATT against Rabgap1l 0.181

A portion from further up, for reference:
z-score, inactive:
GCUCGUUUACUCUUACACCTT against Lefty2 0.966
GGGAGCUAAGAAGAUUCAUTT against Mul1 0.89

Next part.

z-score, active:
GGGCAUGUGGAUGACUGAUTT against Gnptg 2.04
GGGUUUGAGUGCUGUGAAGTT against Ap4s1 -2.66
